The values below come from PMC8659020, “Ferrocene-Labelled Electroactive Aptamer-Based Sensors (Aptasensors) for Glycated Haemoglobin”.

For at least one entry, the source does not settle the construct or the ends of the probe.

Data set [1] deals with Glycated haemoglobin (HbA1c). Kind of data set: electrochemical impedance spectroscopy. The following applies: 5 mM [Fe(CN)6]3-/4-, 0.1 M KCl, 5-40 ug/mL protein, 5' ferrocene, 3' thiol (SH), immobilized on gold screen-printed electrode, DPV in 10 mM Tris-HCl (stated for clinical-range test; pH and temperature not given), EIS in 5 mM [Fe(CN)6]3-/4-, aptamer loaded in 5 mM MgCl2, commercial protein, label: 5' ferrocene, single-stranded DNA.

The subject of data set [2] is Glycated haemoglobin (HbA1c). Kind of data set: differential pulse voltammetry (electrochemical aptasensor). The following applies: aptamer immobilized on electrode; 5' ferrocene; 3' thiol (SH), immobilized on gold screen-printed electrode; DPV in 10 mM Tris-HCl (stated for clinical-range test; pH and temperature not given); EIS in 5 mM [Fe(CN)6]3-/4-, 0.1 M KCl; aptamer loaded in 5 mM MgCl2; commercial protein; label: 5' ferrocene; single-stranded DNA.

By Kd is commonly meant the equilibrium constant for the complex coming apart. Take “GGGGACACAGCAACACACCCACCCACCAGCCCCAGCATCATGCCCATCCGTCGTGTGTG [HbA1c aptamer (I)]”: the binding result in data set [1] was “binds”. In addition, the Kd in data set [2] is 11.7 µg/mL.
